Data: publication PMC12697895, “Vinburnine Sensitizes Radiotherapy Efficacy in Nasopharyngeal Carcinoma by Triggering Pyroptosis and Immune Responses via Activation of EDAR‐NFκB Pathway” (Advanced Science, 2025)
Results are given in words; binding and its absence hold for the method and conditions named. In cells and extracts the contact can be indirect. Some entries that bind do so weakly or less than the wild type.

Molecular target: T1, Ectodysplasin A receptor (EDAR) (human (endogenous in NPC cells)) (UniProt Q9UNE0)
T1 sequence: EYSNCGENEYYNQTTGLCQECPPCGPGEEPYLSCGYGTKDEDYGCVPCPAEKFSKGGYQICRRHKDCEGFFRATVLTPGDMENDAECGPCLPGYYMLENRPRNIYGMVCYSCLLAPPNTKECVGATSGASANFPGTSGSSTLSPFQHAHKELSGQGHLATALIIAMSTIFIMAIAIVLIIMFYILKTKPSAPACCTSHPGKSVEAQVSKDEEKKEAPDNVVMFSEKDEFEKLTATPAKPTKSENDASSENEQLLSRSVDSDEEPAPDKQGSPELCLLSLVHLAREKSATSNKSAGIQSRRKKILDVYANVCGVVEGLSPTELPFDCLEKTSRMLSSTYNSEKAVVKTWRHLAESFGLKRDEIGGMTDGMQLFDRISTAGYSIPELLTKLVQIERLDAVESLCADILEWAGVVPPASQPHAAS
Test: co-IP; precipitation with an anti-EDAR antibody and Protein A+G Agarose from cells treated with 5 µM vinburnine and/or 2 Gy IR for 48 h; western blot for EDARADD and TRAF6

B1: Ectodysplasin A receptor-associated death domain protein (EDARADD) (protein, UniProt Q8WWZ3 1-215)
chain: MGLRTTKQMGRGTKAPGHQEDHMVKEPVEDTDPSTLSFNMSDKYPIQDTELPKAEECDTITLNCPRNSDMKNQGEENGFPDSTGDPLPEISKDNSCKENCTCSSCLLRAPTISDLLNDQDLLDVIRIKLDPCHPTVKNWRNFASKWGMSYDELCFLEQRPQSPTLEFLLRNSQRTVGQLMELCRLYHRADVEKVLRRWVDEEWPKRERGDPSRHF
With B1 the binding was “binds”.
